Experimental data: PMC7848006
Results are given in words; binding and its absence hold for the method and conditions named. A result given as binding can be weak or reduced; the word gives no strength.

By UniProt entry, the sequences of proteins in these tests, tags left out. Where a name states a change or a piece, a line headed by the entry shows the natural chain unless it says otherwise.
UniProt Q94BN0: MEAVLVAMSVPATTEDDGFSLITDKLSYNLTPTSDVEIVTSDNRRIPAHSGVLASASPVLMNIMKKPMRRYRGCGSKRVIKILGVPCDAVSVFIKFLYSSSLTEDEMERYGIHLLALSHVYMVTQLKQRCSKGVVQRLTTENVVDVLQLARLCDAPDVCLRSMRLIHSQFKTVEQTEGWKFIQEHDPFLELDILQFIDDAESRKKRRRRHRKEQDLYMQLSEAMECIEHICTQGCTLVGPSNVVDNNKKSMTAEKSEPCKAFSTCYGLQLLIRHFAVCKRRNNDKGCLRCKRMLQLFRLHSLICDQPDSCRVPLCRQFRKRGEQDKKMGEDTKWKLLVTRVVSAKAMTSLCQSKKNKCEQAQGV
UniProt Q96299: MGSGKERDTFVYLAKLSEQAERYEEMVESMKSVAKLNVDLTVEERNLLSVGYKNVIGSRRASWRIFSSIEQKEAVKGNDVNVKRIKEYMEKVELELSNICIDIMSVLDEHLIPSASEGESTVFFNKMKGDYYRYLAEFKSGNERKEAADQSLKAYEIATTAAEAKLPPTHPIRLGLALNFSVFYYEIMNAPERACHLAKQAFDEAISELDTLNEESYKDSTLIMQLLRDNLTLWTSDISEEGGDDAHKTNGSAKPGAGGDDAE
UniProt P48348: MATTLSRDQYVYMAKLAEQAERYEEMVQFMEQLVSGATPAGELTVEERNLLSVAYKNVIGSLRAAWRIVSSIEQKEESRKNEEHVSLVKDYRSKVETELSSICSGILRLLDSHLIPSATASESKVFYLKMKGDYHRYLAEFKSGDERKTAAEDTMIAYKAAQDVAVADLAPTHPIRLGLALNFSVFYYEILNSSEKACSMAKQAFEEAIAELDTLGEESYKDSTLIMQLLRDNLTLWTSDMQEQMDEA
UniProt P48347: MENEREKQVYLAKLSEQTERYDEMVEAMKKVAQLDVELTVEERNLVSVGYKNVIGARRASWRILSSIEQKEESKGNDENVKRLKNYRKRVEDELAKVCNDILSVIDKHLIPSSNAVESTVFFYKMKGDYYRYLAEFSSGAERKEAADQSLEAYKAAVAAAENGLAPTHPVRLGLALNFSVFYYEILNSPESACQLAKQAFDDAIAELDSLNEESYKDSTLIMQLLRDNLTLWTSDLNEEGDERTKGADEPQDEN

Biological target: AtBT2 in the pGBT9 bait vector (Arabidopsis) (UniProt Q94BN0)
Experiment: two-hybrid; baits in pGBT9, preys in pGAD424, cotransformed into yeast Y2H Gold; growth on SD/-Trp-Leu-His-Ade with X-α-gal

binding, binds:
AtGRF9 in the pGAD424 prey vector (from UniProt Q96299)
AtGRF8 in the pGAD424 prey vector (from UniProt P48348)
AtGRF10 in the pGAD424 prey vector (from UniProt P48347)
